{
  "source": "PubChem BioAssay AID504834",
  "about": "(National Center for Advancing Translational Sciences (NCATS), 2011)",
  "note": "About 22,000 (6.9%) of roughly 320,000 compounds were called active. The shares of active, inactive and inconclusive entries below differ from those in the screen. The call rests on the fitted dose curve; in most records, active means well fitted inhibition curve with a large enough effect; inconclusive means small, poorly fitted or top-dose-only effect, or another doubt; inactive means no such curve, though single readings can be large or run the other way. Where the call is inconclusive, the potency comes from a doubtful curve fit. Potency means the concentration at half of the fitted maximal effect.",
  "data": [
    {"experiment": "Primary qHTS for delayed death inhibitors of the malarial parasite plastid, 96 hour incubation", "details": "P. falciparum luciferase reporter growth; series mostly up to 28.7 µM", "method_in_brief": "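P. falciparum expressing integrated firefly luciferase, in erythrocytes at 2% hematocrit, 0.05% parasitemia, incubated with compounds 96 h at 37 C, 5% CO2. Growth inhibition read as loss of luminescence; two-generation exposure targets delayed-death apicoplast inhibitors.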", "values": [
      {"smiles": "Cc1ccc(/C=C2\\SC(=S)N(CCC(=O)NCCCN3CCOCC3)C2=O)cc1", "Potency": "inconclusive: 18.5 µM [inhibitor, single point]"},
      {"smiles": "Cc1ccn2c(CNCCn3cccn3)c(C(=O)N3CCCCCC3)nc2c1", "Potency": "inconclusive: 11.7 µM [inhibitor, single point]"},
      {"smiles": "O=C(/C=C/c1ccccc1Cl)c1ccc(O)cc1", "Potency": "inconclusive: 18.5 µM [inhibitor, single point]"},
      {"smiles": "C1=CC(c2cc3ccccc3o2)OC(CCc2ccccc2)C1", "note": "(stereo not drawn)", "Potency": "inconclusive: 13.1 µM [inhibitor, single point]"},
      {"smiles": "COc1ccc(OC)c(NC(=O)C(Sc2ccccc2)c2ccccc2)c1", "note": "(stereo not drawn)", "Potency": "inconclusive: 0.0828 µM [inhibitor, partial curve, poor fit]"},
      {"smiles": "CCn1cc(C(=O)OCC(=O)c2ccc(Cl)cc2)c(=O)c2ccc(C)nc21", "Potency": "inconclusive: 11.7 µM [inhibitor, single point]"},
      {"smiles": "CC(C)Nc1nc(NC2CCCC2)nc(N2CCOCC2)n1", "Potency": "active: 5.22 µM"},
      {"smiles": "O=[N+]([O-])c1cccc(NC(=S)NCCc2ccccc2)c1", "Potency": "inactive"},
      {"smiles": "CC12CN3CCN(CC(C3)/C1=N/NC(N)=O)C2", "Potency": "inactive"},
      {"smiles": "O=C(c1ccc(C(=O)N2CCOCC2)nc1)N1CCOCC1", "Potency": "inactive"},
      {"smiles": "Cc1ccc(S(=O)(=O)NCCC(=O)NC2CCCCCC2)cc1", "Potency": "inactive"},
      {"smiles": "C#CCOc1ccc(C2C3=C(CC(C)(C)CC3=O)N(CC(=O)O)C3=C2C(=O)CC(C)(C)C3)cc1", "Potency": "inconclusive: 2.62 µM [inhibitor, full curve, poor fit]"},
      {"smiles": "CC(C)Nc1cc(C(F)(F)F)nc(-c2ccccn2)n1", "Potency": "active: 4.15 µM"},
      {"smiles": "CCNc1nc(NC(C)C)nc(OCC)n1", "Potency": "inconclusive: 4.15 µM [inhibitor, single point]"},
      {"smiles": "CC1(C)NC(=O)N(CC(O)COc2cc3ccccc3cc2C(=O)N2CCCCC2)C1=O", "note": "(stereo not drawn)", "Potency": "inconclusive: 9.28 µM [inhibitor, partial curve]"},
      {"smiles": "COc1ccccc1N1C(=NC(=O)COc2ccccc2)SC2CS(=O)(=O)CC21", "note": "(stereo not drawn)", "Potency": "inconclusive: 20.8 µM [inhibitor, partial curve, poor fit]"},
      {"smiles": "CCCCCC(=O)Nc1cc2[nH]c(=O)cc(COC)c2cc1C", "Potency": "inactive"},
      {"smiles": "O=C(NC1CCCc2ccccc21)C1CCN(S(=O)(=O)c2cnc[nH]2)CC1", "note": "(stereo not drawn)", "Potency": "inconclusive: 10.4 µM [inhibitor, single point]"},
      {"smiles": "N#CCSc1nc(-c2ccccc2)nc2ccc(F)cc12", "Potency": "inconclusive: 18.5 µM [inhibitor, partial curve, poor fit]"},
      {"smiles": "COc1cc(NC(=O)CSc2nnc(-c3ccncc3)n2C2CCCCC2)ccc1NC(=O)c1ccco1", "Potency": "inconclusive: 18.5 µM [inhibitor, single point]"},
      {"smiles": "Cn1nc(C(=O)NNC(=O)c2ccc(Cl)cc2)ccc1=O", "Potency": "inactive"},
      {"smiles": "CCOC(=O)C1CCN(S(=O)(=O)c2ccc3c(c2)CC(C)N3C(=O)C2CC2)CC1", "note": "(stereo not drawn)", "Potency": "inconclusive: 0.294 µM [inhibitor, full curve, poor fit]"},
      {"smiles": "CC(=O)Nc1nc2cc(C(N)=O)ccc2s1", "Potency": "inconclusive: 1.85 µM [inhibitor, partial curve, poor fit]"},
      {"smiles": "COc1ccc(CN(C)C(=O)c2ccc(OCC(=O)N3CCOCC3)c(OC)c2)cc1", "Potency": "inconclusive: 18.5 µM [inhibitor, single point]"},
      {"smiles": "Cc1nnc(SCC(=O)N2CCc3ccccc3C2)s1", "Potency": "inconclusive: 11.7 µM [inhibitor, partial curve, poor fit]"},
      {"smiles": "CSc1ccccc1OCc1cc(C(=O)NCCn2ccnc2C)no1", "Potency": "inconclusive: 11.7 µM [inhibitor, single point]"},
      {"smiles": "Cc1nc(SCn2nnc3ccccc3c2=O)c2c(C)c(C)sc2n1", "Potency": "inconclusive: 20.8 µM [inhibitor, partial curve, poor fit]"},
      {"smiles": "Cc1ccc(-c2nc3ccccc3s2)cc1NC(=S)NC(=O)c1cccc2ccccc12", "Potency": "inconclusive: 14.7 µM [inhibitor, partial curve, poor fit]"},
      {"smiles": "O=C(COc1ccc2ccccc2c1Br)N1CCCC1", "Potency": "inconclusive: 18.5 µM [inhibitor, single point]"},
      {"smiles": "COc1ccc(NC(=S)NCCc2c[nH]c3ccccc23)cc1", "Potency": "inactive"},
      {"smiles": "C=CCn1c(CSc2nc3ccccc3s2)nnc1SCC(=O)NCc1ccccc1", "Potency": "active: 10.4 µM"},
      {"smiles": "Cc1cc(C)cc(N(C(=O)c2sc(C)nc2C)C(C(=O)NC(C)(C)C)c2ccncc2)c1", "note": "(stereo not drawn)", "Potency": "inactive"},
      {"smiles": "CCOc1cccc(-c2cc(C(=O)N/N=C/c3ccc(OC)c(CN4CCOCC4)c3)c3ccccc3n2)c1", "Potency": "inconclusive: 9.28 µM [inhibitor, single point]"},
      {"smiles": "Cc1ccc(S(=O)(=O)N2CCN(CC(=O)N/N=C/c3ccc(Br)s3)CC2)cc1", "Potency": "inconclusive: 18.5 µM [inhibitor, single point]"},
      {"smiles": "CCN(CC)S(=O)(=O)c1ccc(NC(=O)c2cccs2)cc1", "Potency": "inconclusive: 10.4 µM [inhibitor, single point]"},
      {"smiles": "CCOC(=O)c1ccc(NC(=O)CCn2nnc3ccccc32)cc1", "Potency": "inconclusive: 11.7 µM [inhibitor, single point]"},
      {"smiles": "O=c1c([N+](=O)[O-])cccn1Cc1cccc(Cl)c1", "Potency": "inactive"},
      {"smiles": "COc1ccc2c(c1)OC[C@H]1[C@H]2N2C(=O)[C@H](C)NC(=O)[C@@]2(C)[C@H]1c1ccccc1", "Potency": "inconclusive: 4.15 µM [inhibitor, single point]"},
      {"smiles": "O=C(CN1CCN(Cc2ccccc2)CC1)N1CCN(c2ccccc2)CC1", "Potency": "inconclusive: 0.0329 µM [inhibitor, full curve, poor fit]"},
      {"smiles": "CN(Cc1cccc(C(F)(F)F)c1)C(=O)C1CCC(=O)N(CC2CCCCC2)C1", "note": "(stereo not drawn)", "Potency": "inconclusive: 16.5 µM [inhibitor, partial curve, poor fit]"},
      {"smiles": "COc1ccccc1NC(=O)c1cnc(SCC(=O)NCCc2ccccc2)n(C)c1=O", "Potency": "inactive"},
      {"smiles": "OC(COc1ccc(Br)cc1)CN1CCN(c2ccccc2)CC1", "note": "(stereo not drawn)", "Potency": "inconclusive: 9.28 µM [inhibitor, single point]"},
      {"smiles": "CC(C)(N)Cc1ccc(Cl)cc1", "Potency": "inconclusive: 3.38 µM [inhibitor, single point]"}
    ]}
  ]
}
